Construct, isoform or probe ends are uncertain for at least one entry. For some of these results: No signal at the amounts used counts as a negative. Tags and fusion partners may be left off the protein sequences shown. For some of these results: Where cells or extracts were used, other partners may take part.
Assays:
[1] = molecular target: T1, CTD-V5 (Homo sapiens) (UniProt P54577); test: EMSA; settings: nuclear extract; protein in an extract; protein details: V5
T1 sequence (looked up, limits assumed): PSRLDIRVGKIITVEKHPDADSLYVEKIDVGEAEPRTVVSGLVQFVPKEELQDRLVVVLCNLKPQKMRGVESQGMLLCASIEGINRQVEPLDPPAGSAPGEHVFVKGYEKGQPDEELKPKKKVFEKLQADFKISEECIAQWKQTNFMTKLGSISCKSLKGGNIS

[2] = molecular target: T2, TyrRS purified from mammalian cells (Homo sapiens) (UniProt P54577); test: EMSA; settings: recombinant protein
T2 sequence (looked up, limits assumed): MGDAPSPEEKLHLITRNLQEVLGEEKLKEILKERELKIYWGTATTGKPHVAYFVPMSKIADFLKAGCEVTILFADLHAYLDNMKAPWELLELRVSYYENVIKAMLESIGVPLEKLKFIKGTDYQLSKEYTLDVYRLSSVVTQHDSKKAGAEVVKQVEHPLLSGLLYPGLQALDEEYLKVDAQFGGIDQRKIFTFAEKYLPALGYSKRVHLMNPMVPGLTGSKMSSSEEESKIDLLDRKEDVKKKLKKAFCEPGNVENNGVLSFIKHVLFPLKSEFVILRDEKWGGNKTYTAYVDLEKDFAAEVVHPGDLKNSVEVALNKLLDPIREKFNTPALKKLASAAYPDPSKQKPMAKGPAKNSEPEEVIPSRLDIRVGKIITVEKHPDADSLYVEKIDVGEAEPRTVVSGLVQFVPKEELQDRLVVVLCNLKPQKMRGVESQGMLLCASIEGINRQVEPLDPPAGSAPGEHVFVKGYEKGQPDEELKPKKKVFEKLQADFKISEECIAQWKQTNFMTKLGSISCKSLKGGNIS

[3] = molecular target: T3, mini-TyrRS-V5 (Homo sapiens) (UniProt P54577); test: EMSA; settings: nuclear extract; protein in an extract; protein details: V5
T3 sequence (looked up, limits assumed): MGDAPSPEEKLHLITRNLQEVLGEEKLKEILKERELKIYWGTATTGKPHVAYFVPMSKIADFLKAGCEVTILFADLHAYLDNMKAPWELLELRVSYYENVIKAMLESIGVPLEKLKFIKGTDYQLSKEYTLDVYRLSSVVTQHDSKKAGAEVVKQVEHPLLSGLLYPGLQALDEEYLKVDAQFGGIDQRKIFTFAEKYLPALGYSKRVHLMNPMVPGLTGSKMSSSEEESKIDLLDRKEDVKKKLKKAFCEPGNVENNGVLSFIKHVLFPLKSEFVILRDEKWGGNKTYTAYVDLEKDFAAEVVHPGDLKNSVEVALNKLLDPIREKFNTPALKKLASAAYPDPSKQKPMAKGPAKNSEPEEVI

[4] = molecular target: T4, TyrRS-V5 (Homo sapiens) (UniProt P54577); test: EMSA supershift; settings: anti-V5 supershift, nuclear extract; protein in an extract; protein details: V5
T4 sequence (looked up, limits assumed): T2 sequence (looked up, limits assumed)

[5] = molecular target: T4, TyrRS-V5 (Homo sapiens); test: competition with a labelled probe; settings: cold N1 competes with hot N1, nuclear extract; protein in an extract; protein details: V5
[6] = molecular target: T4, TyrRS-V5 (Homo sapiens); test: EMSA; settings: nuclear extract; protein in an extract; protein details: V5

Sequence	binding result [1]	binding result [2]	binding result [3]	binding result [4]	binding result [5]	binding result [6]
ACTCTCTGCTGCTCCTCACTTTTTCCGG (double strand) [28 bp DNA (WT), CTCCTC motif]	no binding	binds	no binding	binds	binds	
ACTCTCTGCTGCTTTTCACTTTTTCCGG (double strand) [28 bp DNA (Mut), CTTTTC]		no binding				no binding
